Where a name gives a salt, the structure may show the parent alone. ± gives the standard deviation of the averaged measurements. The list shows a part of the results. The data scatter; read single values as rough.
Key:
hAMSC donor 1 [1] = test: Hoechst total cell count ratio vs vehicle control; higher = more cells (less toxicity)
hAMSC donor 2 [2] = test: as above
hAMSC donor 1 [3] = test: transgenic luciferase activity (RLU/mg protein) fold change vs vehicle control (ratio); higher = more transgene expression
hAMSC donor 2 [4] = test: as above
hAMSC donor 1 [5] = test: transfection efficiency (EGFP+ cells / Hoechst count) fold change vs vehicle control (ratio); hAMSC are human adipose-derived mesenchymal stem cells given an EGFP-luciferase plasmid by lipofection; higher = enhanced transfection
hAMSC donor 2 [6] = test: as above
[7] = priming compound concentration 0.2 µM
[8] = priming compound concentration 1.7 µM
[9] = priming compound concentration 13 µM

Structure (SMILES) | Hoechst total cell count ratio (hAMSC donor 1 [1]; [7]) | Hoechst total cell count ratio (hAMSC donor 1 [1]; [8]) | Hoechst total cell count ratio (hAMSC donor 1 [1]; [9]) | Hoechst total cell count ratio (hAMSC donor 2 [2]; [7]) | Hoechst total cell count ratio (hAMSC donor 2 [2]; [8]) | Hoechst total cell count ratio (hAMSC donor 2 [2]; [9]) | transgenic luciferase activity (hAMSC donor 1 [3]; [9]) | transgenic luciferase activity (hAMSC donor 2 [4]; [7]) | transgenic luciferase activity (hAMSC donor 2 [4]; [9]) | transfection efficiency (hAMSC donor 1 [5]; [7]) | transfection efficiency (hAMSC donor 1 [5]; [8]) | transfection efficiency (hAMSC donor 1 [5]; [9]) | transfection efficiency (hAMSC donor 2 [6]; [7]) | transfection efficiency (hAMSC donor 2 [6]; [8]) | transfection efficiency (hAMSC donor 2 [6]; [9]) | transgenic luciferase activity (hAMSC donor 1 [3]; [8]) | transgenic luciferase activity (hAMSC donor 2 [4]; [8])
CC(C)(C(=O)c1cccnc1)c1cccnc1 [Metyrapone] | 1.03 ± 0.17 | 0.806 ± 0.032 | 0.932 ± 0.079 | 1.14 ± 0.073 | 0.984 ± 0.11 | 1.32 ± 0.14 | 1.4 ± 0.35 | 0.836 ± 0.15 | 0.572 ± 0.093 | 1.03 ± 0.078 | 1.27 ± 0.28 | 1.17 ± 0.3 | 1.26 ± 0.098 | 1.029 ± 0.0044 | 0.898 ± 0.11 |  | 
C[N+]1(C)CCC(OC(=O)C(O)(c2ccccc2)C2CCCC2)C1 (configuration not stated) [Glycopyrronium bromide] | 1.16 ± 0.1 | 1.06 ± 0.024 | 0.921 ± 0.087 | 1.3 ± 0.031 | 1.3 ± 0.12 | 1.1 ± 0.16 |  | 0.754 ± 0.36 |  | 0.953 ± 0.094 | 1.11 ± 0.22 | 1.13 ± 0.66 | 0.922 ± 0.18 | 1.17 ± 0.059 | 1.21 ± 0.25 | 0.758 ± 0.27 | 0.656 ± 0.062
COc1cccc2c1C(=O)c1c(O)c3c(c(O)c1C2=O)C[C@@](O)(C(C)=O)C[C@@H]3O[C@H]1C[C@H](N)[C@H](O)[C@H](C)O1 [Daunorubicin hydrochloride] | 0.781 ± 0.054 | 0.086 ± 0.035 | 0.116 ± 0.021 | 0.395 ± 0.03 | 0.182 ± 0.016 | 0.0797 ± 0.014 | 0.0295 ± 0.019 | 3.93 ± 0.26 | 0.00392 ± 0.0043 | 1.29 ± 0.32 |  | 1.67 ± 0.47 | 3.3 ± 0.6 | 3.834 ± 0.037 | 0.679 ± 0.31 |  | 2.41 ± 0.078
Nc1nc(Cl)nc2c1ncn2[C@H]1C[C@H](O)[C@@H](CO)O1 [Cladribine] | 1.26 ± 0.2 | 1.03 ± 0.16 | 0.766 ± 0.14 | 1.15 ± 0.35 | 1.25 ± 0.45 | 1.39 ± 0.35 |  | 0.596 ± 0.27 | 0.15 ± 0.055 | 1.13 ± 0.25 | 1.77 ± 0.11 | 1.61 ± 0.73 | 1.1 ± 0.31 | 0.949 ± 0.16 | 1.21 ± 0.31 | 1.78 ± 0.33 | 0.596 ± 0.22
Nc1ccn([C@@H]2O[C@H](CO)[C@@H](O)[C@@H]2O)c(=O)n1 [Cytarabine] | 1.14 ± 0.13 | 1.09 ± 0.088 | 1.12 ± 0.049 | 1.36 ± 0.2 | 1.13 ± 0.25 | 1.2 ± 0.053 |  | 0.933 ± 0.13 |  | 0.978 ± 0.3 | 1.39 ± 0.065 | 1.45 ± 0.28 | 0.962 ± 0.2 | 0.969 ± 0.15 | 0.942 ± 0.2 | 0.776 ± 0.17 | 0.825 ± 0.026
O=C(O)CCCc1ccccc1 [4-Phenylbutyric acid] | 1.25 ± 0.05 | 1.05 ± 0.094 | 1.17 ± 0.065 | 0.803 ± 0.11 | 0.926 ± 0.15 | 0.919 ± 0.013 |  |  | 0.832 ± 0.18 | 0.812 ± 0.23 | 1.08 ± 0.39 | 1.47 ± 0.43 | 1.07 ± 0.063 | 1.21 ± 0.29 | 1 ± 0.13 | 1.17 ± 0.26 | 0.91 ± 0.55
CN1CCN(CCCN2c3ccccc3Sc3ccc(Cl)cc32)CC1 [Prochlorperazine maleate] | 1.03 ± 0.11 | 0.993 ± 0.028 | 1.07 ± 0.065 | 1.21 ± 0.06 | 1.51 ± 0.062 | 1.23 ± 0.068 |  |  | 0.379 ± 0.11 | 1.05 ± 0.28 | 0.953 ± 0.068 | 0.618 ± 0.018 | 1.01 ± 0.022 | 1.02 ± 0.067 | 0.776 ± 0.11 | 1.69 ± 0.17 | 0.597 ± 0.35
Nc1nc2ccc(OC(F)(F)F)cc2s1 [Riluzole hydrochloride] | 1.12 ± 0.075 | 1.08 ± 0.027 | 1.21 ± 0.12 | 1.04 ± 0.1 | 1.1 ± 0.14 | 1.68 ± 0.081 |  | 0.893 ± 0.099 |  | 0.88 ± 0.029 | 0.996 ± 0.16 | 1.03 ± 0.45 | 1.38 ± 0.16 | 1.06 ± 0.34 | 0.662 ± 0.1 | 1 ± 0.27 | 1.04 ± 0.21
COc1cc(N)c(Cl)cc1C(=O)NC1CCN(CCCOc2ccc(F)cc2)CC1OC (configuration not stated) [Cisapride hydrate] | 1.07 ± 0.15 | 1.14 ± 0.091 | 1.15 ± 0.1 | 1.2 ± 0.13 | 1.41 ± 0.3 | 1.1 ± 0.15 |  | 0.885 ± 0.34 |  | 1.15 ± 0.18 | 0.964 ± 0.13 | 1.38 ± 0.64 | 1.15 ± 0.15 | 0.851 ± 0.25 | 0.857 ± 0.14 | 1.07 ± 0.4 | 0.835 ± 0.05
NC(=O)c1cccnc1 [Nicotinamide] | 1.29 ± 0.3 | 1.35 ± 0.18 | 1.1 ± 0.15 | 1.18 ± 0.05 | 1.24 ± 0.008 | 1.45 ± 0.14 | 1.02 ± 0.22 | 0.62 ± 0.087 | 0.542 ± 0.14 | 0.9 ± 0.24 | 1.09 ± 0.11 | 0.95 ± 0.12 | 1.17 ± 0.18 | 0.846 ± 0.064 | 0.917 ± 0.16 |  | 
CN1CCCCC1CCN1c2ccccc2Sc2ccc([S+](C)[O-])cc21 (configuration not stated) [Mesoridazine besylate] | 1.22 ± 0.1 | 1.13 ± 0.057 | 1.21 ± 0.019 | 1.55 ± 0.32 | 1.43 ± 0.14 | 1.44 ± 0.31 |  | 0.72 ± 0.15 |  | 0.719 ± 0.35 | 0.885 ± 0.16 | 1.29 ± 0.11 | 0.892 ± 0.21 | 0.898 ± 0.19 | 0.743 ± 0.086 | 0.778 ± 0.022 | 0.521 ± 0.12
C[C@@H]1CN(CCCn2c3ccccc3c3ccccc32)C[C@H](C)N1 [Rimcazole dihydrochloride] | 1.23 ± 0.22 | 1.19 ± 0.23 | 1.23 ± 0.18 | 1.23 ± 0.098 | 1.69 ± 0.075 | 1.07 ± 0.073 |  |  | 0.36 ± 0.015 | 0.772 ± 0.12 | 1.05 ± 0.29 | 1.33 ± 0.31 | 0.955 ± 0.028 | 0.894 ± 0.065 | 0.861 ± 0.072 | 1.34 ± 0.17 | 0.445 ± 0.12
CC(=O)CCCCn1c(=O)c2c(ncn2C)n(C)c1=O [Pentoxifylline] | 1.4 ± 0.14 | 1.24 ± 0.042 | 1.32 ± 0.2 | 1.31 ± 0.3 | 1.24 ± 0.063 | 1.32 ± 0.2 |  |  | 0.805 ± 0.16 | 0.735 ± 0.066 | 1.11 ± 0.058 | 1.28 ± 0.21 | 0.792 ± 0.092 | 1.11 ± 0.044 | 0.957 ± 0.22 | 1.05 ± 0.32 | 1.43 ± 0.2
CC[C@]1(O)C[C@H]2CN(CCc3c([nH]c4ccccc34)[C@@](C(=O)OC)(c3cc4c(cc3OC)N(C=O)[C@H]3[C@@](O)(C(=O)OC)[C@H](OC(C)=O)[C@]5(CC)C=CCN6CC[C@]43[C@@H]65)C2)C1 [Vincristine sulfate] | 0.488 ± 0.066 | 0.537 ± 0.078 | 0.541 ± 0.036 | 0.732 ± 0.087 | 0.863 ± 0.14 | 1.84 ± 0.17 |  | 0.347 ± 0.15 | 0.422 ± 0.19 | 2.01 ± 0.55 | 0.976 ± 0.49 | 0.795 ± 0.33 | 0.877 ± 0.3 | 0.777 ± 0.21 | 0.709 ± 0.14 | 2.42 ± 0.65 | 0.59 ± 0.12

From the supplement of paper PMC7238544
